The target of one data set is TBPcore (UniProt P13393). The data set can be described thus: EMSA. To be noted: EMSA: 3 nM DNA, 300 nM TBPcore, 3 uM TFIIB, 4 mM Tris-HCl pH 8.0, 60 mM KCl, 5 mM MgCl2, 4% glycerol, 1 mM DTT, 100 ug/ml BSA, 0.1% Tween 20, 50 ug/ml heparin, recombinant protein, label: 5'-Cy5 on coding strand.
The next data set concerns TBPcore + TFIIB. Kind of data set: EMSA. Conditions: EMSA: 3 nM DNA, 300 nM TBPcore, 3 uM TFIIB, 4 mM Tris-HCl pH 8.0, 60 mM KCl, 5 mM MgCl2, 4% glycerol, 1 mM DTT, 100 ug/ml BSA, 0.1% Tween 20, 50 ug/ml heparin, recombinant protein, label: 5'-Cy5 on coding strand.

Chains of the proteins cited; added tags and fusions are not shown. Residues count along the entry.
UniProt P13393, 61-240: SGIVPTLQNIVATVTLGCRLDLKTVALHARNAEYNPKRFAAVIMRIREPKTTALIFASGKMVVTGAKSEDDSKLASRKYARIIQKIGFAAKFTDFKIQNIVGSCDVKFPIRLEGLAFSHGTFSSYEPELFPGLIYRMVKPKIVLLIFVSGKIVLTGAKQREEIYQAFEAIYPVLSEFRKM

For at least one entry, the source does not settle the construct or the ends of the probe. A weaker result is weaker than the reference pair of the same experiment.

On to “ACAGTAGTATACTGTGGGCCGGCCAGATATGGAACGTTAT (double strand) [HIS4 (GC-8)]”, for which the binding result in the data set with TBPcore (strongly decreased) and in the data set with TBPcore + TFIIB (strongly decreased) was “binds more weakly” each time.
Take “ATTTTCATTTTTGGCCGGCCGGCCATGTAACTAATTTAGT (double strand) [TMT1 (GC-12)]”: the binding result with TBPcore (impaired) and in the data set on TBPcore + TFIIB (impaired) was “binds more weakly” in each case.

Values taken from PMC3217976.
